Experiment: general procedure: Fmoc solid-phase peptide synthesis; Rink amide resin (0.5 mmol/g); ethyl cyano(hydroxyimino) acetate (5 equiv) / DIC (5 equiv)
Conditions: whole synthesis, overall

| Substance | isolated yield [%] |
| --- | --- |
| H-Phe^1-Leu^2-Ser^3-Gly^4-IIe^5-Val^6-Gly^7-Met^8-Leu^9-D-Ala^10-Lys^11-Leu^12-Phe^13-NH2 | 81.2 |
| H-Phe^1-Leu^2-Ser^3-Gly^4-IIe^5-Val^6-Gly^7-Met^8-Leu^9-D-NAL^10-Lys^11-Leu^12-Phe^13-NH2 | 24 |
| H-Phe^1-Leu^2-Ser^3-Gly^4-IIe^5-Val^6-Gly^7-Met^8-Leu^9-D-Phe^10-Lys^11-Leu^12-Phe^13-NH2 | 76.7 |
| H-Phe^1-Leu^2-Ser^3-Gly^4-IIe^5-Val^6-Gly^7-Met^8-Leu^9-D-Tyr^10-Lys^11-Leu^12-Phe^13-NH2 | 79 |
| H-Phe^1-Leu^2-Ser^3-Gly^4-IIe^5-Val^6-Gly^7-Met^8-Leu^9-Gly^10-Lys^11-Leu^12-Phe^13-NH2 | 37 |
| H-Phe^1-Leu^2-Ser^3-Gly^4-IIe^5-Val^6-Gly^7-Met^8-Leu^9-L-Lys^10-Lys^11-Leu^12-Phe^13-NH2 | 72 |
